Among the data in paper PMC8133684, “The URL1–ROC5–TPL2 transcriptional repressor complex represses the ACL1 gene to modulate leaf rolling in rice” are binding values, retold here.

No constants are given. Whether binding was seen depends on the method and setting. Binding can be weak; no strength is given. Where a sequence is shown, tags or fusion partners need not be part of it. For some of these results: In cells and extracts the contact can be indirect.

Assay [1] addresses N-terminus of TPL2 (TOPLESS co-repressor OsTPL2), yeast two-hybrid fusion (rice (Oryza sativa L.)). Kind of assay: two-hybrid; N-terminus of TPL2 as bait in pGBKT7, URL1, URL1mEAR or ROC5 as prey in pGADT7; yeast strain AH109; growth on SD-Leu-Trp-His with 2.5 mM 3-AT (Figure 5E).
Assay [2] addresses N-terminus of TPL2 fused to the N-terminal part of firefly luciferase (rice (Oryza sativa L.)). Kind of assay: split reporter; firefly luciferase complementation imaging (LCI); NLUC and CLUC fusions co-expressed by Agrobacterium infiltration in the same N. benthamiana leaf; luciferin sprayed, LUC signal imaged and quantified.

B1: URL1 (UPWARD ROLLED LEAF1), HD-ZIP IV family member RICE OUTERMOST CELL-SPECIFIC 8 (ROC8), yeast two-hybrid fusion (protein, UniProt Q69T58 1-710)
chain: MDFGDEPEGSDSQRRRKRYHRHTPRQIQQLEAMFKECPHPDENQRAQLSRELGLEPRQIKFWFQNRRTQMKAQHERADNCFLRAENDKIRCENIAIREALKNVICPTCGGPPVGEDYFDEQKLRMENARLKEELDRVSNLTSKYLGRPFTQLPPATPPMTVSSLDLSVGGMGGPSLDLDLLSGGSSGIPFQLPAPVSDMERPMMAEMATRAMDELIRLAQAGDHIWSKSPGGGVSGGDARETLNVDTYDSIFSKPGGSYRAPSINVEGSRESGLVLMSAVALADVFMDTNKWMEFFPSIVSKAHTIDVLVNGMGGRSESLILMYEELHIMTPAVPTREVNFVRYCRQIEQGLWAIADVSVDLQRDAHFGAPPPRSRRLPSGCLIADMANGYSKVTWVEHMEVEEKSPINVLYRDLVLSGAAFGAHRWLAALQRACERYASLVALGVPHHIAGVTPEGKRSMMKLSQRMVNSFCSSLGASQMHQWTTLSGSNEVSVRVTMHRSTDPGQPNGVVLSAATSIWLPVPCDHVFAFVRDENTRSQWDVLSHGNQVQEVSRIPNGSNPGNCISLLRGLNASQNSMLILQESCTDASGSLVVYSPIDIPAANVVMSGEDPSSIPLLPSGFTILPDGRPGSAAGASTSSAGPLAAARGGGGGGAGGGSVVTVAFQILVSSLPSSKLNAESVATVNGLITTTVEQIKAALNCSAHGHHP
B1: the binding entry in assay [1] is “binds”.

B2: URL1 (ROC8) fused to the N- or C-terminal part of firefly luciferase (protein, UniProt Q69T58 1-710)
chain: MDFGDEPEGSDSQRRRKRYHRHTPRQIQQLEAMFKECPHPDENQRAQLSRELGLEPRQIKFWFQNRRTQMKAQHERADNCFLRAENDKIRCENIAIREALKNVICPTCGGPPVGEDYFDEQKLRMENARLKEELDRVSNLTSKYLGRPFTQLPPATPPMTVSSLDLSVGGMGGPSLDLDLLSGGSSGIPFQLPAPVSDMERPMMAEMATRAMDELIRLAQAGDHIWSKSPGGGVSGGDARETLNVDTYDSIFSKPGGSYRAPSINVEGSRESGLVLMSAVALADVFMDTNKWMEFFPSIVSKAHTIDVLVNGMGGRSESLILMYEELHIMTPAVPTREVNFVRYCRQIEQGLWAIADVSVDLQRDAHFGAPPPRSRRLPSGCLIADMANGYSKVTWVEHMEVEEKSPINVLYRDLVLSGAAFGAHRWLAALQRACERYASLVALGVPHHIAGVTPEGKRSMMKLSQRMVNSFCSSLGASQMHQWTTLSGSNEVSVRVTMHRSTDPGQPNGVVLSAATSIWLPVPCDHVFAFVRDENTRSQWDVLSHGNQVQEVSRIPNGSNPGNCISLLRGLNASQNSMLILQESCTDASGSLVVYSPIDIPAANVVMSGEDPSSIPLLPSGFTILPDGRPGSAAGASTSSAGPLAAARGGGGGGAGGGSVVTVAFQILVSSLPSSKLNAESVATVNGLITTTVEQIKAALNCSAHGHHP
With B2, the binding entry in assay [2] was “binds”.

B3: ROC5 (RICE OUTERMOST CELL-SPECIFIC 5), HD-ZIP IV family member, yeast two-hybrid fusion (protein, UniProt Q6EPF0 1-804)
chain: MSFGGLFDGGGGGGMQFPFASGFASSPALSLALDNAGGGIGGRMLGGGAGAGSSAGGAMTRDTEAENDSRSGSDHLDAISAAGEDDVEDAEPSNSRKRKKRYHRHTPQQIQELEALFKECPHPDEKQRAELSRRLSLDARQVKFWFQNRRTQMKTQLERHENALLKQENDKLRAENMTIREAMRSPMCGSCGSPAMLGEVSLEEQHLRIENARLKDELNRVCALATKFLGKPISLLSPPPLLQPHLSLPMPNSSLELAIGGIGGLGSLGTLPGCMNEFAGGVSSPMGTVITPARATGAAIPSLVGNIDRSVFLELAISAMDELVKMAQMDDPLWVPALPGSPSKEVLNFEEYLHSFLPCIGMKPAGYVSEASRESGLVIIDNSLALVETLMDERRWSDMFSCMIAKATVLEEVSTGIAGSRNGALLLMKAELQVLSPLVPIREVTFLRFCKQLAEGAWAVVDVSIDGLVRDHNSGTAPTGGNVKCRRVPSGCVMQDTPNGYCKVTWVEHTEYDEASVHQLYRPLLRSGLAFGARRWLATLQRQCECLAILMSSATVTANDSTAISQEGKRSMLKLARRMTENFCAGVSASSAREWSKLDGATGSIGEDVRVMARKSVSEPGEPPGVVLSAATSVWVPVAPEKLFNFLRDEQLRAEWDILSNGGPMQEMTQIAKGQRDGNSVSLLRASAVSANQSSMLILQETCTDASGSIVVYAPVDIPAMQLVMNGGDSTYVALLPSGFAILPDGPRIGATGYETGGSLLTVAFQILVNNQPTAKLTVESVETVNNLISCTIKKIKTALQCDA
Take B3: the binding result in assay [1] is given as “binds”.

B4: ROC5 fused to the N- or C-terminal part of firefly luciferase (protein, UniProt Q6EPF0 1-804)
chain: MSFGGLFDGGGGGGMQFPFASGFASSPALSLALDNAGGGIGGRMLGGGAGAGSSAGGAMTRDTEAENDSRSGSDHLDAISAAGEDDVEDAEPSNSRKRKKRYHRHTPQQIQELEALFKECPHPDEKQRAELSRRLSLDARQVKFWFQNRRTQMKTQLERHENALLKQENDKLRAENMTIREAMRSPMCGSCGSPAMLGEVSLEEQHLRIENARLKDELNRVCALATKFLGKPISLLSPPPLLQPHLSLPMPNSSLELAIGGIGGLGSLGTLPGCMNEFAGGVSSPMGTVITPARATGAAIPSLVGNIDRSVFLELAISAMDELVKMAQMDDPLWVPALPGSPSKEVLNFEEYLHSFLPCIGMKPAGYVSEASRESGLVIIDNSLALVETLMDERRWSDMFSCMIAKATVLEEVSTGIAGSRNGALLLMKAELQVLSPLVPIREVTFLRFCKQLAEGAWAVVDVSIDGLVRDHNSGTAPTGGNVKCRRVPSGCVMQDTPNGYCKVTWVEHTEYDEASVHQLYRPLLRSGLAFGARRWLATLQRQCECLAILMSSATVTANDSTAISQEGKRSMLKLARRMTENFCAGVSASSAREWSKLDGATGSIGEDVRVMARKSVSEPGEPPGVVLSAATSVWVPVAPEKLFNFLRDEQLRAEWDILSNGGPMQEMTQIAKGQRDGNSVSLLRASAVSANQSSMLILQETCTDASGSIVVYAPVDIPAMQLVMNGGDSTYVALLPSGFAILPDGPRIGATGYETGGSLLTVAFQILVNNQPTAKLTVESVETVNNLISCTIKKIKTALQCDA
Regarding B4, the binding result in assay [2] is reported as “binds”.
